Laboratory results taken from publication PMC6947699.
These are yes or no findings as the source states them, for the method shown. Binding seen in cells or lysates may run through a third protein. Binding calls can cover weak binding; strength is not graded here. Sequences can lack the tags named with a protein.

Molecular target: T1, GST-fusion USP15, purified from BL21 (UniProt Q9Y4E8)
T1 sequence: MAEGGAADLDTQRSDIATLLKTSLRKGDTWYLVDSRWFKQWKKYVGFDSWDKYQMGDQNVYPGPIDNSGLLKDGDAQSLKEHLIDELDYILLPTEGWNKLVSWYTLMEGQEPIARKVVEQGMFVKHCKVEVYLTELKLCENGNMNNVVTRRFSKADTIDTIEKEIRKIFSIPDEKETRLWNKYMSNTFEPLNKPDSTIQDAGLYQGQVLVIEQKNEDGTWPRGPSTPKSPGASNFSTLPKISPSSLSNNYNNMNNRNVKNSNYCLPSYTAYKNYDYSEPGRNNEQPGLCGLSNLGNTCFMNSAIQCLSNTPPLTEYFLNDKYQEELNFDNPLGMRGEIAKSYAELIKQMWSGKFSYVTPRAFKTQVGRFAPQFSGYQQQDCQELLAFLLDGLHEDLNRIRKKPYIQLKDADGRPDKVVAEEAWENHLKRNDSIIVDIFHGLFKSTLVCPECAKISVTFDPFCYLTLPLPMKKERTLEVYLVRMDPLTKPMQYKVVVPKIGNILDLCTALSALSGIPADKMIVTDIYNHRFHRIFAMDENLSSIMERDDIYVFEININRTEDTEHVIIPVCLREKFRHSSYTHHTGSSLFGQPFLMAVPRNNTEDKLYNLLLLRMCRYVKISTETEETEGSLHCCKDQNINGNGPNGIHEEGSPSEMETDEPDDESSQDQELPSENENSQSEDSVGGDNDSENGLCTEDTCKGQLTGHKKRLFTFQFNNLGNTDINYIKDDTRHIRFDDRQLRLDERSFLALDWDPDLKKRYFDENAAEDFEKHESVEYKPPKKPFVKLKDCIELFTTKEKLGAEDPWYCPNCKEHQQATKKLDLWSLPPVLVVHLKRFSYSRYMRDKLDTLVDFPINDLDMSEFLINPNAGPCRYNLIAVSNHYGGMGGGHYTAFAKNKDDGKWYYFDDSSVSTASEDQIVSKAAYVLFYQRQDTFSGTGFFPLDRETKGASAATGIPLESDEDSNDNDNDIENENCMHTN
Assay: co-IP; in vitro Co-IP with IL1R2 or icd-IL1R2 and USP15 protein truncations purified from BL21, Western blot; both purified

Substance | binding
GST-fusion IL1R2 (full length), purified from BL21 (human) (receptor) | binds
GST-fusion IL1R2 intracellular domain (icd-IL1R2), purified from BL21 (human) (domain or fragment) | binds
